In ChEMBL document CHEMBL3112424, “Discovery and optimization of pyrimidone indoline amide PI3Kβ inhibitors for the treatment of phosphatase and tensin homologue (PTEN)-deficient cancers” (J Med Chem, 2014):
≈ marks a conversion by molar mass, not a printed value.

Chains of the proteins cited; added tags and fusions are not shown.
UniProt P08684, whole entry: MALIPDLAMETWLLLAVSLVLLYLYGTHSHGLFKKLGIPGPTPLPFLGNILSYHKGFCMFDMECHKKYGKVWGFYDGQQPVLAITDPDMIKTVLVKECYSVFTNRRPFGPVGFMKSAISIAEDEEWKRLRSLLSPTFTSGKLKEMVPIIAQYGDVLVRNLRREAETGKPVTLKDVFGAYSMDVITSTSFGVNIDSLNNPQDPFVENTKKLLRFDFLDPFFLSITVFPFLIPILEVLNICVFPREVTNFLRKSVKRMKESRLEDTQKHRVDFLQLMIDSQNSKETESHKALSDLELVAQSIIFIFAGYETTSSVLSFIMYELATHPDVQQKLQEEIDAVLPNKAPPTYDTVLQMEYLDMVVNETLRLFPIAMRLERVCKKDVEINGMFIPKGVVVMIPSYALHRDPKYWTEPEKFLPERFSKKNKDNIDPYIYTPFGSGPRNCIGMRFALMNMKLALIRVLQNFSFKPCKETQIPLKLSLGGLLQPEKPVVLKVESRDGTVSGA

Legend:
Cytochrome P450 3A4 = Cytochrome P450 3A4 (Homo sapiens, UniProt P08684); assay: Inhibition of recombinant human CYP3A4
[1] = Apparent permeability in human Caco2 cells at 5 uM after 20 mins; conditions: Caco-2
[2] = Solubility of the compound in phosphate buffer at pH 7.4 by HPLC analysis

O=C(Cc1nc(N2CCOCC2)cc(=O)[nH]1)N1CCc2c(F)cccc21
IC50 (Cytochrome P450 3A4): 40 µM | Papp at 20 min, 5 µM [1]: 54 nm/s | solubility [2]: 14 µM (≈ 5.02 µg/mL)
